Construct, isoform or probe ends are uncertain for at least one entry. At least one verdict rests on a figure or table, not on a statement of the authors. For some of these results: Protein sequences can lack the tags named with them.
Assays:
TRF1 + TIN2S = test: TIRFM DNA-DNA bridging; settings: TIN2 isoform not fully stated
TRF1 = biological target: T1, TRF1 (UniProt P54274); test: TIRFM DNA-DNA bridging; settings: transient pairing by TRF1 alone
T1 sequence (looked up, limits assumed): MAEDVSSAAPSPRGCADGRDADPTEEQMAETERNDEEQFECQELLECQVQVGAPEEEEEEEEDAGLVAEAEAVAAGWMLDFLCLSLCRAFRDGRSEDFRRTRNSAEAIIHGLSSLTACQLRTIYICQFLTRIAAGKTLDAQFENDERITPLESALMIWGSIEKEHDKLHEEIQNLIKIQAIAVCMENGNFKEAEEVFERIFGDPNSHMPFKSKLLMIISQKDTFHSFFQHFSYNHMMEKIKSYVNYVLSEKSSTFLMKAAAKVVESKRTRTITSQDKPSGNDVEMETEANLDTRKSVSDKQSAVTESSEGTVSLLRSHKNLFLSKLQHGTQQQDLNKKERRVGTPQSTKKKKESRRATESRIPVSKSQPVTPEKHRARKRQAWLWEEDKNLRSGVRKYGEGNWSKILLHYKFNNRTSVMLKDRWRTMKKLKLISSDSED

Sequence	binding result (TRF1 + TIN2S; partner DNA N3 (5 nM))	binding result (TRF1; partner DNA N3 (5 nM))	binding result (TRF1 + TIN2S; partner DNA N2 on surface)	binding result (TRF1; partner DNA N2 on surface)
TCTGTAGTGTATTAGGGTTAGGGTTAGGGTTAGGGTTAGGGTTAGGGATGTAGGTATGTCACAGCATGA (double strand) [Cy5/biotin telomeric DNA, 6 TTAGGG (69 bp)]	binds	binds	–	–
TCTGTAGTGTATTAGGGTTAGGGTTAGGGTTAGGGTTAGGGTTAGGGATGTAGGTATGT (double strand) [Cy3 telomeric DNA, 6 TTAGGG (59 bp)]	–	–	binds	binds

Reference: publication doi:10.1101/2020.09.12.286559 (bioRxiv, 2020)
